Measured values: paper PMC5605572
Construct, isoform or probe ends are uncertain for at least one entry. The comparison behind a weaker result is the experiment's own reference, which may not be listed here.

Sequences of proteins named here, by UniProt entry; tags and fusion partners are left off.
UniProt P28159, whole entry S269D: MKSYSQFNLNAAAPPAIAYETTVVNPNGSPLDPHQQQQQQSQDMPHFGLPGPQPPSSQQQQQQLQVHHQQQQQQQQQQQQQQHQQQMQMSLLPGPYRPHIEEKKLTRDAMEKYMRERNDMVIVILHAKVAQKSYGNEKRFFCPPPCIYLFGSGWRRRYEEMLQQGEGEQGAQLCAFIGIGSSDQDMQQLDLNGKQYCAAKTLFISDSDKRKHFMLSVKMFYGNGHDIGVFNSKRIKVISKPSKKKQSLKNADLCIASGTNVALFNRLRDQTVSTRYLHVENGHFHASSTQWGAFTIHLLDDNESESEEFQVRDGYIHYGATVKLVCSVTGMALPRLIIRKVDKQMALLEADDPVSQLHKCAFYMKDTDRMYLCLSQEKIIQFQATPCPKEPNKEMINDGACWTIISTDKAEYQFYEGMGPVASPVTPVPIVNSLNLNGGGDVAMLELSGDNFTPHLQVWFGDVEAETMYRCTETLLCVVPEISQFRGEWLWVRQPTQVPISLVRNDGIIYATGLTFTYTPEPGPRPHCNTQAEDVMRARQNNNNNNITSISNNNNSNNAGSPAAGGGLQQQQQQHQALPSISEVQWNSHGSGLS

Target: Su(H) S269D (Drosophila melanogaster) (UniProt P28159)
Experiment: EMSA
Settings: very weak binding; EMSA: 10 mM Tris-HCl pH 7.5, 50 mM NaCl, 1 mM EDTA, 0.0275 ug/ul salmon sperm DNA; protein translated in vitro; label: radiolabelled (EMSA), unlabelled as competitor

## TTGGGTGGCTCGTGGCGTGGGAACCGAGCTGAAAG / GGTTCTTTCAGCTCGGTTCCCACGCCACGAGCCAC [E(spl)m8-S1]
  binding result: binds more weakly
